To fix the notation:
B1: mTERF4/BSM/RUG2 (protein, UniProt Q9ZT96 1-541)
chain: MKIRFCNGFTKPGFLLVHFEPPSFFAVRSRSLSDSTYGNLCNHKKRPGTGIGLTVQCAIANRRFSSRSLDSPRRERSSRSSSSSGRDRDRDKDKGRDSKSLYSRPSLLDMNKEKAANRAKVYEFLRGIGIVPDELDGLELPVTADVMKERVEFLHKLGLTIEDINNYPLVLGCSVKKNMVPVLDYLGKLGVRKSTFTEFLRRYPQVLHSSVVIDLAPVVKYLQGLDIKPSDVPRVLERYPEVLGFKLEGTMSTSVAYLVGIGVARREIGGILTRYPEILGMRVARIIKPLVEYLEVLGIPRLAAARLIEKRPHILGFELDDTVKPNVQILQDFNVRETSLPSIIAQYPEIIGIDLKPKLDTQRKLLCSAIHLNPEDLGSLIERMPQFVSLSESPMLKHIDFLTKCGFSIDQTREMVIGCPQVLALNLGIMKLSFEYFQKEMKRPLQDLVDFPAFFTYGLESTVKPRHKKIIKKGIKCSLAWMLNCSDEKFEQRMSYDTIDIEEVETDPSSFDMNTLMQPEREEESDSEYEEEEDDDDEEFA
B2: mTERF6/PDE191 (protein, UniProt Q9SZL6 1-333)
chain: MEVTNTSSIMWFFRDKGFDDPSIDKMLRKCKQLEKAQSDVASENWDYLSNIVGIQERKLPYIVSRCPKILTLRLDERLIPMVECLSSLGRNPREVASAITKFPPILSHSVEEKLCPLLAFFQALGVPETQLGKMILFNPRLISYSIDTKLTVIVSFLASLGLDQDGMIGKVLVKNPFLMGYSVDKRLRPTTEFLKSSVGLSEDGIKSVVMNFPQLLCRDVNKILKPNYDYLKECGFGDSQIATMVTGYPQILIKSVKNSLQPRIRFLVQVMGRGMDEVASYPEFFHHGLKKKVESRFKLVKKNNIDCSLREMLDCNTKKFHEKFGFSEVTASF
B3: PAP4/FSD2 (protein, UniProt Q9LU64 1-305)
chain: MMNVAVTATPSSLLYSPLLLPSQGPNRRMQWKRNGKRRLGTKVAVSGVITAGFELKPPPYPLDALEPHMSRETLDYHWGKHHKTYVENLNKQILGTDLDALSLEEVVLLSYNKGNMLPAFNNAAQAWNHEFFWESIQPGGGGKPTGELLRLIERDFGSFEEFLERFKSAAASNFGSGWTWLAYKANRLDVANAVNPLPKEEDKKLVIVKTPNAVNPLVWDYSPLLTIDTWEHAYYLDFENRRAEYINTFMEKLVSWETVSTRLESAIARAVQREQEGTETEDEENPDDEVPEVYLDSDIDVSEVD
B4: PAP10/Trxz (protein, UniProt Q9M7X9 1-183)
chain: MALVQSRTFPHLNTPLSPILSSLHAPSSLFIRREIRPVAAPFSSSTAGNLPFSPLTRPRKLLCPPPRGKFVREDYLVKKLSAQELQELVKGDRKVPLIVDFYATWCGPCILMAQELEMLAVEYESNAIIVKVDTDDEYEFARDMQVRGLPTLFFISPDPSKDAIRTEGLIPLQMMHDIIDNEM
B5: mTERF5/MDA1 (protein, UniProt F4JVI3 1-493)
chain: MQSLSQLGPSEIFLVARREKPSTRAQLWFTGRLSFRQETNGIRLKNRVEFSPRPVPPNLIAAEKEEAKAVLTLFFKKQGLSNSLSSRLINKSDLFIDHLVSRLHSVHKARYLVGRELTTLEIRDSLIPYLEQLHEEHGDLLAELVVSFPDPPAEPRLVASSPVSVLPPRGDTDSAADTRKLRAVSRVSELDTEGALRPQTLYLLDLGLNLEQIKTITRKFAAFPYYSLDGKIKPVVEFLLDLGIPKSDIPTILCKRPQICGISLTDNLKPTMAFLETLGIDKNQWAKIISRFPAILTYSRQKLTSTVEFLSQTGLTEEQIGRILTRCPNIMSYSVEDKLRPTMEYFRSLNVDVAVLLHRCPQTFGLSIESNLKPVTEFFLEKGFGLDEIGIMISRYGALYTFSLKENVMPKWDYFQTMDYPKSELVKFPQFFGYSLQERIKPRYELVQRSGVRLLLNQVLSLSGIEFEKVVKKKMMKLVSNNVIAEQSSGGLL
B6: PAP8/PTAC6 (protein, UniProt Q9XI19 1-328)
chain: MASSAASPSLSLLSFTSKPPYPSGSQRLFASFRTDGLFAPLTLKSRRGRGIVVKVDDVDADGGGADEYDMDDEEVEEVDNKKDYDVEYDPLAAAIAAAGGGGDGDIAFVQSKSFISTQGWDSDMVVDYRINEDEFHKLSLMDCDFFIRKPPDPDNDVYDFREMYVTPPDTDIYSIPRVLAPMPQKYIRCAMSDYGCYNVTEPPIDAPRDPLYKSEREISKVFLTKHYRNRRTNDPEFVLDLEEIYVIDSKTKSITRARVLVTVPGGRKRDRKDDLLVIRDNGTSFKIIHVGERDDPTTVIEREEWTKTREDMEKHLRKLRDFSVSNWF
B7: rpoA (protein, UniProt P56762 1-329)
chain: MVREKVKVSTRTLQWKCVESKRDSKRLYYGRFILSPLMKGQADTIGIAMRRALLGEIEGTCITRAKSENIPHDYSNIAGIQESVHEILMNLNEIVLRSNLYGTRNALICVQGPGYITARDIILPPAVEIIDNTQHIATLTEPIDLCIELKIERNRGYSLKMSNNFEDRSYPIDAVFMPVENANHSIHSYGNGNEKQEILFLEIWTNGSLTPKEALHQASRNLINLFIPFLHVEEETFYLENNQHQVTLPFFPFHNRLVNLRKKKKTKELAFQYIFIDQLELPPRIYNCLKKSNIHTLLDLLNNSQEDLIKIEHFHVEDVKKILDILEKK
B8: rpoB (protein, UniProt P50546 1-1072)
chain: MLGDEKEGTSAIPGFNQIQFEGFYRFIDQGLIEELAKFPKIEDIDHEIEFQLFVETYQLVEPLIKERDAVYESLTYSSELYVSAGLIWKTSRNMQEQRIFIGNIPLMNSLGTSIVNGIYRIVINQILQSPGIYYQSELDHNGISVYTGTIISDWGGRLELEIDKKARIWARVSRKQKISILVLSSAMGLNLREILENVCYPEIFLSFLTDKEKKKIGSKENAILEFYQQFSCVGGDPIFSESLCKELQKKFFHQRCELGRIGRRNINWRLNLNIPQNNIFLLPRDVLAAADHLIGMKFGMGTLDDMNHLKNKRIRSVADLLQDQLGLALARLENVVKGTISGAIRHKLIPTPQNLVTSTPLTTTYESFFGLHPLSQVLDRTNPLTQIVHGRKLSYLGPGGLTGRTANFRIRDIHPSHYGRICPIDTSEGINVGLIGSLSIHARIGDWGSLESPFYELFEKSKKARIRMLFLSPSQDEYYMIAAGNSLALNRGIQEEQAVPARYRQEFLTIAWEEVHLRSIFPFQYFSIGASLIPFIEHNDANRALMSSNMQRQAVPLSRSEKCIVGTGLERQVALDSGVPAIAEHEGKILYTDTEKIVFSGNGDTLSIPLIMYQRSNKNTCMHQKPQVRRGKCIKKGQILADGAATVGGELALGKNILVAYMPWEGYNFEDAVLISECLVYGDIYTSFHIRKYEIQTHVTTQGPERITKEIPHLEGRLLRNLDKNGIVMLGSWVETGDILVGKLTPQVAKESSYAPEDRLLRAILGIQVSTSKETCLKLPIGGRGRVIDVRWVQKKGGSSYNPEIIRVYISQKREIKVGDKVAGRHGNKGIISKILPRQDMPYLQDGRPVDMVFNPLGVPSRMNVGQIFECSLGLAGSLLDRHYRIAPFDERYEQEASRKLVFSELYEASKQTANPWVFEPEYPGKSRIFDGRTGDPFEQPVIIGKPYILKLIHQVDDKIHGRSSGHYALVTQQPLRGRSKQGGQRVGEMEVWALEGFGVAHILQEMLTYKSDHIRARQEVLGTTIIGGTIPKPEDAPESFRLLVRELRSLALELNHFLVSEKNFQINRKEV
B9: PAP11/MurE-Like (protein, UniProt F4I3P9 1-772)
chain: MAFTFLSPHPVFLSLTGTTSSFSYKPVLLPFSRNSRTLTVAAGPARRNSYPNPADDDPPEAPEDSMHGVSKFQQIQRQAARARKLEEEDFEKNRNTYLSAIADVEDAAETGRDDEESGGDLFSDIDRAISMKRSEFVKQGLLKPNPPKTASLKKIGEEGNEEEGDVTDDVDELDEEEVVDLDEIDKLTGLTEISDEEDWVDEEGNTRINKKKEFGSDHQFEFDLDDFGESKARIVEPKFKMCLAELLDESKVVPISVYGDLDVEITGIQHDSRGVSAGDLFVCCLGSENFLSEADKRGAVAVVASKEIDIEDTLGCRALVIVEDTNAVLAALASSFYRHPSKNMSVIGVTGTDGKTTTTYLIKSLYEAMGVRTGMFSTVSCYIHGDNKLDTPNATMNPDAVLVQSLMAKMLHNGTESLVMEASPQELALGKCDEVDFDIAVFTNLTRENTDFRGTDEEYRDAEAKLFSRMVDPERHRKVVNIDDPNAAFFVQQGNPNVPVVTFAMENTKADVHPLKFELSLFETQVLVNTPQGILEISSGLLGRHNIYNILAAVAVGIAVGAPLEDIVRGVEEVDAVPGRCELIDEEQAFGVIVDHANTPDGLSRLLDSIRELKPRRIITVIGCEGENERGKRPLMTKIATEKSDVTMLTSDNPRNEDPLDILDDMLSGIGWTMQEYLKHGEHDYYPPLANGHRLFLHDIRRVAVRCAVAMGEEGDMVVVAGKGHEAYQLEGEKKEFYDDREECREALQYVDELHQAGIDTSEFPWRLPESH
B10: PAP9/FSD3 (protein, UniProt Q9FMX0 1-263)
chain: MSSCVVTTSCFYTISDSSIRLKSPKLLNLSNQQRRRSLRSRGGLKVEAYYGLKTPPYPLDALEPYMSRRTLEVHWGKHHRGYVDNLNKQLGKDDRLYGYTMEELIKATYNNGNPLPEFNNAAQVYNHDFFWESMQPGGGDTPQKGVLEQIDKDFGSFTNFREKFTNAALTQFGSGWVWLVLKREERRLEVVKTSNAINPLVWDDIPIICVDVWEHSYYLDYKNDRAKYINTFLNHLVSWNAAMSRMARAEAFVNLGEPNIPIA
B11: mTERF2/EMB221 (protein, UniProt F4IHL3 1-641)
chain: MLLHCNVSYYTSTFSFISSSLRRQDNADDSQDTVIRRRHNARSISLYIRHNRDLKLNKNPNESQETFVPPPPPPRRDLDGENRSKLLELSLVTRRTPQFPGSIYAQSASDADIASSLPSLRNFLGSDGDDDGESEREMIVKALEIRRKVTKEIIKESLVRKGRFGITYATNVTDRLGDFVDHVMIQAAALKRLPEFSESRFNLRARTVIEDSNFVPLVRWLKHHELSYNRIAKIICMSKGNLDSIRIMIEWLKSIHVKGEFIAVAFLRSGDNILQRNREELNEIVEYLESNGVRRDWMGYVVGRCPELLSFSMEEVKSRVDFFLKMGMNQNDFGTMVYDYPKIIGFFSFQVMEKKINYLKEFGLSTEEVGRLLAYKPHLMGCSIEERWKPLVKYFYYLGIPKEGMKRILVVKPILYCIDLEKTIAPKVRFLQEMGIPNEAIGNMLVKFPSLLTNSLYKKIRPVVIFLLTRAGVTQKDIGKVIAMDPALLGCSIGTKLEPNMRYYISLGIRFYQLGEMIADFPMLLRYNVDNLRPKYRYLRRTMIRPLQDLIEFPRFFSYSLERRIIPRHTIMVENRVNFKLRYMLACTDEEFERRVRDKVERRERFEAGLDSEDSQPSDENISDQEIAFSDEAEEEEDLTE
B12: mTERF1/SOLDAT1 (protein, UniProt Q84X53 1-284)
chain: MMIARCSLFPPPCFSAVRIRCFAGETSDTGILFREKLIYLQDLNVDPHKALRVNPSLRSAPISSVVSVETLLSSTGLSRPAVGRILDMFPDLLTSDPESEILPVLRFLSNEISISEQDIPKSISRCPRLLISSVDYQLRPALTFLKTLGFVGRDTITSRNTVLLVSNVERTLIPKIEYLEEGLGFTREEVAKMVVRSPALLTYSVDNNLVPKVEFFIEEMRGDVKELKRFPQYFSFSLERKIKPRHRLLKEHGILMPLSEMLKVSDGQFNHWLLELRLRSAERR

No constants are given. Whether binding was seen depends on the method and setting.

In paper PMC7772139 one finds binding data, which are given here for twelve molecules.

The target of this test is Seedling Lethal 1 (SL1/mTERF3) (Arabidopsis thaliana). Briefly: two-hybrid; SL1 as bait (GAL4 DNA binding domain, pGBKT7), PEP complex proteins and chloroplast mTERF proteins as prey (GAL4 activation domain, pGADT7); yeast strain Y2H Gold; growth on SD/-Trp-Leu, SD/-Trp-Leu-His and SD/-Trp-Leu-His-Ade.
For B1, the binding entry is on record as “no binding”. As for B2, the entry is “no binding”.

In the case of B3, the binding entry is “no binding”. With B4 the entry was “no binding”; with B5, “no binding”; with B6, “no binding”. On to B7, for which the binding entry is recorded as “no binding”. As for B8, the binding entry is “no binding”. As for B9, the binding entry was “no binding”. With B10, the binding entry is on record as “no binding”. With B11 the entry was “no binding”; with B12, “no binding”.
